In article PMC4798371:
No constants are given. Whether binding was seen depends on the method and setting. In cells and extracts the contact can be indirect. A result given as binding can be weak or reduced; the word gives no strength.

Chains of the proteins cited; added tags and fusions are not shown. Lines headed by an entry give the natural chain unless they say otherwise; changes in a name come on top.
UniProt Q38C69: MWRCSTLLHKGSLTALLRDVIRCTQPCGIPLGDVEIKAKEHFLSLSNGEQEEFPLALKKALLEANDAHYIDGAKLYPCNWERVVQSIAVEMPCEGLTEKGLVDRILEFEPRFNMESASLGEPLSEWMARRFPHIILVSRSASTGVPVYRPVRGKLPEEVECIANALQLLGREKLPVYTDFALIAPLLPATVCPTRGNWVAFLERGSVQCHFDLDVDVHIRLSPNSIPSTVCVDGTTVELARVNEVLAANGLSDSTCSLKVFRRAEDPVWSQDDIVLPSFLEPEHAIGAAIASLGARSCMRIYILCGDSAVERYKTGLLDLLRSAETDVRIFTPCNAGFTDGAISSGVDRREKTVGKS
UniProt Q389P7: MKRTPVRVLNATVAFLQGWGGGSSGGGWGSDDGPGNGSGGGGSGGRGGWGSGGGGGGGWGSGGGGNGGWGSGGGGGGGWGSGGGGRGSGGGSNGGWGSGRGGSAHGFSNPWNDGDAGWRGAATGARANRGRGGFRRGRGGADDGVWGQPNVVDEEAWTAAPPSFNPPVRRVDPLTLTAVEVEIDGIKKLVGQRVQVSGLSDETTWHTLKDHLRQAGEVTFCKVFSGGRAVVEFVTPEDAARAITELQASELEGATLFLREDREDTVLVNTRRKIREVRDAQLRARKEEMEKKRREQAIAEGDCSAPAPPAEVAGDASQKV

Assays:
[1] = target: cmyc-Tb927.10.1730 (Trypanosoma brucei) (UniProt Q38C69); assay: co-IP; anti c-myc agarose beads; mitochondrial lysate of tet-induced cells prepared with 40 U RNaseOUT (-RNase); 2 hours at 4°C; wash buffer Tris-HCl pH 8.0 10 mM, NaCl 100 mM, NP-40 0.1%; blot probed with polyclonal antibodies against MRB8170 and TbRGG2
[2] = target: cmyc-Tb927.10.1730 (Trypanosoma brucei) (UniProt Q38C69); assay: co-IP; anti c-myc agarose beads; mitochondrial lysate of tet-induced cells prepared with 200 μg/ml RNase A (+RNase); 2 hours at 4°C; wash buffer Tris-HCl pH 8.0 10 mM, NaCl 100 mM, NP-40 0.1%; blot probed with polyclonal antibodies against MRB8170 and TbRGG2

binding [1]: binds | binding [2]: binds
Substance: TbRGG2 (Tb927.10.10830) (from UniProt Q389P7)
